The values are deposited in ChEMBL (CHEMBL3988442, “University of Dundee, Small-Polar-MMV Screening Library” (2021)).

By UniProt entry, the sequences of proteins in these tests, tags left out. Residues count along the entry.
UniProt A4I591, 1-473: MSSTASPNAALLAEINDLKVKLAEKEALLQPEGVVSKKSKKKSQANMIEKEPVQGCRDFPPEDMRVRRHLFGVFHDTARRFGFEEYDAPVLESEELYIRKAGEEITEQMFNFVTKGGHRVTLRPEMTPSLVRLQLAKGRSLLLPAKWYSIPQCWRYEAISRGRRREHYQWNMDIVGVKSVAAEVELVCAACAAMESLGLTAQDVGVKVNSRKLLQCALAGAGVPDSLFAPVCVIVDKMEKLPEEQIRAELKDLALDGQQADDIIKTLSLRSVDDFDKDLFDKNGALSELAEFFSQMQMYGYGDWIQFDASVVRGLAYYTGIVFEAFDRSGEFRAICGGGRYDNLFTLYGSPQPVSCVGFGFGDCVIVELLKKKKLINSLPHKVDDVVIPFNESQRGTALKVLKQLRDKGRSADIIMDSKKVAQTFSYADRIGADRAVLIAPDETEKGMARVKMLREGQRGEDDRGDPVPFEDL
UniProt Q4DA54, 1-478: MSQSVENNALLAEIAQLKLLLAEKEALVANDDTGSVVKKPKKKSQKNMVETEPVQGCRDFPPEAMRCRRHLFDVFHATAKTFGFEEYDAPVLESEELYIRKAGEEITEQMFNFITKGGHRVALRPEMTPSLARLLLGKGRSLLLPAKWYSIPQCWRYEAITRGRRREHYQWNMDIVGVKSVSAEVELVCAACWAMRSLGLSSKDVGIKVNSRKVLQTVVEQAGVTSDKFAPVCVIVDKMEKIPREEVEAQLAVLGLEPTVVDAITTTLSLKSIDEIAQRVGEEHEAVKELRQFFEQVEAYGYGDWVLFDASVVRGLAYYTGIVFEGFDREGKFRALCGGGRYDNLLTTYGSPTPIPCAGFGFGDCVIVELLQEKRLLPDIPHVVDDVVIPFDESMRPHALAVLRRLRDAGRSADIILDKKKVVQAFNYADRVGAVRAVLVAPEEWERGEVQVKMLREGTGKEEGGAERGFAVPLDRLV
UniProt P9WPC5, whole entry: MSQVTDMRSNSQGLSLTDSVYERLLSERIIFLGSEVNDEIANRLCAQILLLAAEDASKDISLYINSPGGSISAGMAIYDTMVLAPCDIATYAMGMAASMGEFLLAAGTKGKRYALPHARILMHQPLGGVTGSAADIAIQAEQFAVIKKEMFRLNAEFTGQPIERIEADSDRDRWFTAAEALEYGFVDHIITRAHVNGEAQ
UniProt P9WPC3, whole entry partner: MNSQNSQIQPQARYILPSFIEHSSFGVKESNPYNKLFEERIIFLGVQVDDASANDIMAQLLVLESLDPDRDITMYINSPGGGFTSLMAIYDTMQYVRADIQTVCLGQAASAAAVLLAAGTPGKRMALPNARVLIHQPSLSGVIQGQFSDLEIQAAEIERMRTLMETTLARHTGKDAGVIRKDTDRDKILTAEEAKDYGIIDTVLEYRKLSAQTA

Each number is a percent effect as filed.
The controls that fix the scale are not given in the record; negative values are as filed.
Compounds were drawn at random from those tested, without regard to their results.

LiHisRS: 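Enzyme assay of histidyl-tRNA synthetase; the read-out is not stated. Target: Histidine-tRNA ligase, Leishmania infantum (UniProt A4I591). Concentration: 30 µM. Direction is inferred from retests: higher values go with stronger inhibition. The assay is labelled LdHisRS but filed under L. infantum. Size under these conditions: about 69,000 compounds, about 410 of them at 50% or above in at least one test.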
TcHisRS: 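Histidine-tRNA ligase, Trypanosoma cruzi CL Brener (UniProt Q4DA54). Enzyme assay of histidyl-tRNA synthetase; the read-out is not stated. Compounds at 30 µM. Higher reads as stronger inhibition (inferred: compounds with an IC50 in retests scored well above the rest). Of about 69,000 compounds tested this way, about 31 (0.045%) reached 50% or more in at least one test.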
ClpP1P2: 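Protease assay of ClpP1P2, read by the AMC dye that it sets free. Target: ClpP1P2, Mycobacterium tuberculosis (UniProt P9WPC5 and UniProt P9WPC3). Concentration: 50 µM. Higher reads as stronger inhibition, judged from the few compounds that gave an IC50. Most other retested compounds had strongly negative values. About 69,000 compounds were tested under these conditions; 0.015% (about 10) showed 50% or more at least once.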

SMILES	LiHisRS	TcHisRS	ClpP1P2
N#Cc1ccc(NCc2cc3n(n2)CCCN(C(=O)C2CCC2)C3)nc1	15.96%	9.045%	6.099%
CCN(CC)C(=O)C1CCCN(c2ncnc3oc(C)nc23)C1 (configuration not stated)	12.24%	3%	-10.98%
CCc1ccccc1OCC(=O)N1CCOCC1c1ncon1 (configuration not stated)	12.73%	2.339%	16.74%
Cc1occc1C(=O)N1CCCN(Cc2nccn2C(C)C)CC1	28.7%	13.78%	-17.07%
COc1ccnc(N2CCN(CC(=O)N3CCOCC3)CC2)n1	31.82%	2.273%	7.935%
CCc1nc2c(c(N3CCOCC3)n1)CCN(C(=O)N1CCCC1)CC2	-15.38%	4.865%	-9.241%
COc1c(C)cnc(CSc2nnc(NC3CC3)s2)c1C	18.75%	6.667%	1.988%
Cc1cc(N(C)Cc2noc(C)n2)n2nc(C)c(C)c2n1	18.27%	7.317%	3.813%
Cc1ccccc1OCCN(C)Cc1noc(CC(C)C)n1	8.824%	2.646%	-10.45%
CS(=O)(=O)N1CCC(Nc2ccc(C#N)c(C(F)(F)F)c2)CC1	11.43%	-5.102%	-4.359%
O=C(c1cc2c(s1)CCC2)N1CCC(c2cnccn2)CC1	4.255%	2.632%	-17.36%
CC(C)C1CCCN1C(=O)Nc1ccc(=O)n(C)c1 (configuration not stated)	118.7%	49.21%	8.426%
CCN(C(=O)NCc1ccc(C)cc1OC)C(C)c1cccnc1 (configuration not stated)	6.452%	10.34%	-18.3%
CN(C)CCCn1ccc(-c2cccc(-c3cncnc3)c2)n1	-0.8333%	1.932%	-13.04%
CCc1nc2n(n1)CC(Nc1cc(C)nc3ncnn13)CC2 (configuration not stated)	17.31%	0%	-6.664%
O=C(Cn1ccc2sccc2c1=O)NCc1ccccc1F	9.783%	2.97%	-8.597%
COC[C@@]12CCO[C@@H]1CCN(C(=O)COc1ccc(C)cc1)C2	14.52%	6.14%	-9.431%
CC(=O)N[C@@H]1CN(C(=O)Cc2coc3cc(C)ccc23)C[C@H]1O	2.837%	0.7752%	-14.06%
CC(C)N(C)Cc1ccccc1CNc1ccc2nncn2n1	12.9%	5.155%	-2.476%
CN(C)Cc1ccnc(C2CN(Cc3c(F)cccc3F)CCO2)n1 (configuration not stated)	-51.55%	1.111%	-2.55%
COCC(=O)N1CC2=CC(C)(C)COc3ccc(OC)c(c32)C1	4.082%	5.618%	1.363%
CC(C)(C)c1cc(=O)n2c(n1)SCC(C(=O)NCc1ccco1)C2 (configuration not stated)	45.65%	12%	-30.19%
CN(C)CCNCC1(O)CCCN(Cc2cccc(F)c2F)C1=O (configuration not stated)	45.45%	-1.087%	-3.66%
COc1ccc(CNC(=O)Cc2csc(C(C)=O)c2)cc1	13.89%	3.061%	-3.182%
O=C(NCCN1CCCC1)c1cc2c(s1)CCN2C(=O)c1ccccc1	16.67%	13.33%	-11.21%
CCS(=O)(=O)N1CCCCC1c1nc(C)no1 (configuration not stated)	16.05%	-0.4464%	-12.59%
CCc1nc2n(n1)CCCC2NC(=O)Nc1ccc(F)cc1C#N (configuration not stated)	21.05%	10.92%	2.439%
O=C(NCC(O)c1ccc(F)cc1)C1CCN(C2CCCCC2)CC1 (configuration not stated)	13.73%	9.877%	-10.52%
Cc1cc(N2CCOC(c3ccc(N(C)C)cn3)C2)nc(N)n1 (configuration not stated)	11.19%	3.955%	-17.53%
CCOc1ncccc1CNCc1c(C)nn(C)c1N(C)C	15.79%	4.871%	17.08%
N#Cc1cccc(CN2CCn3cc(Cn4cccn4)nc3C2)c1	20.51%	1.22%	-11.9%
CC(O)c1cn(CC2CCN(C(=O)CN(C)C(C)C)CC2)nn1 (configuration not stated)	9.167%	1.932%	-24.22%
CC(C)c1noc(CCNC(=O)C2COc3ccccc3C2)n1 (configuration not stated)	13.11%	0%	-10.55%
Cc1noc(C(C)N2CCN(CC(=O)N3CCCC3)CC2)n1 (configuration not stated)	15.73%	6.533%	-0.9665%
CNC(=O)CN1CCN(C(=O)Nc2ccc(Cl)cc2F)CC1	6.452%	-1.02%	-14.76%
c1csc(CCNc2nc(-c3ccncc3)nc3c2CCNCC3)c1	22.37%	5.435%	-0.1895%
CCCN1CC2(CCN(c3cc(C4CC4)ncn3)CC2)CC1C(=O)O (configuration not stated)	14.88%	6.122%	-1.039%
O=C(NC1CCC1)[C@@H]1CCO[C@@H]2CCN(C3CCCC3)C[C@H]21	14.29%	2.941%	-8.348%
c1ccc2nc(N3CCCC(Cn4cncn4)C3)cnc2c1 (configuration not stated)	21.92%	1.053%	-7.399%
CCc1nccn1C1CCCN(C(=O)c2ccc(OC)c(OC)c2)C1 (configuration not stated)	6.957%	-1.149%	-12.26%
CNc1snc(C)c1C(=O)N1CCC(Nc2ccc(C)nn2)CC1	9.174%	8.235%	-10.79%
C[C@@H]1CN(Cc2ccc(C(F)(F)F)cc2F)CC[C@]1(C)O	2%	4.819%	12.03%
CC(C(=O)NCc1ccc(F)cc1)N(C)CCN1CCOCC1 (configuration not stated)	-6.667%	0.6061%	-10.69%
Cc1cccc(CO[C@@H]2C[C@H]3CN(c4ncccn4)CCN3C2)n1	20.69%	10.13%	-1.518%
CCS(=O)(=O)N1CCC2(COCc3cnc(N4CCOCC4)nc32)C1 (configuration not stated)	17.95%	4.878%	-1.029%
Cc1ccc(OC(C)CNC(=O)c2c[nH]nn2)cc1 (configuration not stated)	3.226%	2.062%	-11.26%
O=C(COc1ccc2c(c1)CCC2)NCc1ccco1	6.897%	1.739%	-21.23%
CNS(=O)(=O)c1cccc(CNC(=O)NCC2CCOC2)c1 (configuration not stated)	9.917%	-4.202%	-0.2085%
CCN(C)c1ncnc2c1CCN(Cc1ccsc1)CC2	11.5%	4%	0.3491%
O=C(C1CC=CC1)N1Cc2nccn2CC(CN2CCCC2)C1 (configuration not stated)	20.59%	8.867%	-6.127%
CCOC(=O)C1(Cc2cccc(OC)c2)CCCN(Cc2ncc[nH]2)C1 (configuration not stated)	-0.8333%	-1.932%	-28.24%
Cc1cnc(N2CCCC3(CCCN3CC(=O)N(C)C)C2)nc1 (configuration not stated)	9.244%	6.863%	1.577%
CN(CCCc1nccn1C)C(=O)C1CCN(C(=O)C2CCCC2)CC1	22.03%	4.39%	-17.99%
Cc1nc(COc2ccc(OC3CCCCNC3=O)cc2)oc1C (configuration not stated)	5.357%	-0.8772%	-7.015%
CC(C)c1noc(CNc2cccc(-c3nnnn3C)c2)n1	12.5%	6.329%	-7.732%
N#Cc1ccc(NC2CCN(CC(F)F)CC2)c(F)c1	16.33%	10.26%	11.01%
Cn1cccc1C(=O)NCc1cnc2n1CCN(c1ccccn1)C2	2.857%	2.941%	-11.69%
CC(C(=O)NCC(F)(F)F)N1CCC(N2CCN(C)C2=O)CC1 (configuration not stated)	6.78%	1.143%	-29.59%
CC(=O)N1Cc2ccccc2C[C@H]1C(=O)N(C)Cc1ccccn1	2%	3.614%	-6.24%
O=C1CCCN1Cc1ncn2c1CN(C(=O)Cc1ccccc1)CCC2	13.89%	7.477%	0.3822%
CN(C)Cc1ccnc(C2CN(CCc3ccccc3)CCO2)n1 (configuration not stated)	2.062%	4.444%	-6.164%
Cc1ccc(F)cc1S(=O)(=O)Nc1cnc(N2CCCC2)nc1	7.692%	4.444%	-1.901%
CC(=O)Nc1cccc(C(=O)Nc2cnc3n2CCCC3)c1	18.27%	5.691%	0.9849%
COc1ccc(C2SCC(=O)N2c2ncc(C)s2)cc1 (configuration not stated)	5.747%	6.186%	9.1%
O=C(C1CCOCC1)N1C[C@@H]2[C@@H](C1)OCC(=O)N2Cc1ccncc1	3.81%	-4.959%	-1.741%
CCOCCN1CCN(Cc2nnc(-c3ccco3)o2)CC1	8.511%	-0.578%	-11.81%
O=C(c1csc(C2CC2)n1)N1CCCC1Cn1cccn1 (configuration not stated)	-0.8929%	2.312%	-17.08%
CN(C)CC1(O)CCN(C(=O)c2ccc(-n3cccn3)cc2Cl)C1 (configuration not stated)	2.655%	0.8%	1.994%
O=c1[nH]c2c(c(=O)n1C1CCCCC1)CCC2NCCc1ccccc1 (configuration not stated)	-13.59%	-1.639%	-1.216%
CC(C)Cc1cc(NC(=O)c2ccc(=O)[nH]n2)n(C)n1	-19.18%	2.29%	11.92%
NC(=O)C1CCN(c2nc3nccc(-c4ccncc4)c3c(=O)[nH]2)CC1	-10%	0%	-81.54%
CN1CCOCC2(CCN(Cc3ccc[nH]3)CC2)C1	3.419%	4.908%	3.396%

Repeated from the top, 8 entries:

SMILES,LiHisRS,TcHisRS,ClpP1P2
N#Cc1ccc(NCc2cc3n(n2)CCCN(C(=O)C2CCC2)C3)nc1,15.96%,9.045%,6.099%
CCN(CC)C(=O)C1CCCN(c2ncnc3oc(C)nc23)C1 (configuration not stated),12.24%,3%,-10.98%
CCc1ccccc1OCC(=O)N1CCOCC1c1ncon1 (configuration not stated),12.73%,2.339%,16.74%
Cc1occc1C(=O)N1CCCN(Cc2nccn2C(C)C)CC1,28.7%,13.78%,-17.07%
COc1ccnc(N2CCN(CC(=O)N3CCOCC3)CC2)n1,31.82%,2.273%,7.935%
CCc1nc2c(c(N3CCOCC3)n1)CCN(C(=O)N1CCCC1)CC2,-15.38%,4.865%,-9.241%
COc1c(C)cnc(CSc2nnc(NC3CC3)s2)c1C,18.75%,6.667%,1.988%
Cc1cc(N(C)Cc2noc(C)n2)n2nc(C)c(C)c2n1,18.27%,7.317%,3.813%